Results are given in words; binding and its absence hold for the method and conditions named. Some binding calls cover weakened binding; strength is not graded here.
T1: Arabidopsis thaliana Rad4/XPC homologue (AtRAD4) (Arabidopsis thaliana) (UniProt Q8W489)
T1 sequence: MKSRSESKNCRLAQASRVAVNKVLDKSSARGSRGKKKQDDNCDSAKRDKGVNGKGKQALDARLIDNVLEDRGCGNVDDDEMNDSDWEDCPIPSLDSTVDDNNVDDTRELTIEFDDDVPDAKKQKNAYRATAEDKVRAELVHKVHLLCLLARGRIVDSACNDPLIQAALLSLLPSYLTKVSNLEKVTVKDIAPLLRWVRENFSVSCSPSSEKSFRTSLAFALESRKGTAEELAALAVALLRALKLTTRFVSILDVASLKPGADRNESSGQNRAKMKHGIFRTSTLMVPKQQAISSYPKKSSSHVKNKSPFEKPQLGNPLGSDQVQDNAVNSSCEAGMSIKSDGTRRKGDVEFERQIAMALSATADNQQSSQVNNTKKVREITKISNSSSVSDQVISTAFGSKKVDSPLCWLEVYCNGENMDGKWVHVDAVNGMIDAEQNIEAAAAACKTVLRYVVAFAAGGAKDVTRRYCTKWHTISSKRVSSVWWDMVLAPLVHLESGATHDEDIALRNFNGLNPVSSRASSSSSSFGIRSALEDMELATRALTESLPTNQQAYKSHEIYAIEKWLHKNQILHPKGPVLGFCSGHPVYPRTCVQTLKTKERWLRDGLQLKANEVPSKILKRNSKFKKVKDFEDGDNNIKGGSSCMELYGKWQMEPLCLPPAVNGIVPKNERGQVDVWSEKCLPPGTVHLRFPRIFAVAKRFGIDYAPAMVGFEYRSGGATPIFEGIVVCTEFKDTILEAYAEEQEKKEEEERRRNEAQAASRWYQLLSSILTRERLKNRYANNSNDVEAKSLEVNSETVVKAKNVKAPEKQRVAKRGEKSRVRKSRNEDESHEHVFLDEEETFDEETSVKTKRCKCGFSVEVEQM

T2: Arabidopsis RAD23B (Arabidopsis thaliana) (UniProt Q84L33)
T2 sequence: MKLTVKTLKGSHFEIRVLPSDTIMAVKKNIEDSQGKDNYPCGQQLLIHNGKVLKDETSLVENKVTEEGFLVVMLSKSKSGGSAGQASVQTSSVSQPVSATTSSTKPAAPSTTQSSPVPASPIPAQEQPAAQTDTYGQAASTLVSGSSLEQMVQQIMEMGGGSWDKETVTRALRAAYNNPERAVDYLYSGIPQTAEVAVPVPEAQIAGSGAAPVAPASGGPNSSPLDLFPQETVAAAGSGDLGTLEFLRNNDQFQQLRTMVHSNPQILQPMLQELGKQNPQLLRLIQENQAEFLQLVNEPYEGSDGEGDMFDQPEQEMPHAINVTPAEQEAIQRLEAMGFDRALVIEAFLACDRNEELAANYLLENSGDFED

T3: RAD4N pGBKT7 (1-371/866 aa) (Arabidopsis thaliana) (UniProt Q8W489)
T3 sequence: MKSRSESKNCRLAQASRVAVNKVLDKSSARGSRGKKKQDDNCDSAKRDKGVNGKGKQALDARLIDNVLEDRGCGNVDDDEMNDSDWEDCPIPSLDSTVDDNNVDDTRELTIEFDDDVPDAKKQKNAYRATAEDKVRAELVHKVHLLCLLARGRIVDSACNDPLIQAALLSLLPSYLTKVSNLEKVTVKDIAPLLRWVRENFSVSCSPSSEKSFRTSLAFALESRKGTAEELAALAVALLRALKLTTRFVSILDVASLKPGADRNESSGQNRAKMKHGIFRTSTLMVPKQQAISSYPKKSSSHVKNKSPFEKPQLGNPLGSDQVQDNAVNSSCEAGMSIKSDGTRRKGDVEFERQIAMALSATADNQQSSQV


What was measured:
Experiment in all cases: two-hybrid; Matchmaker gold yeast two-hybrid system (Clontech), pGADT7 and pGBKT7 fusions; diploid yeast in five-fold dilutions on quadruple drop-out (-ade, -his, -leu, -trp) selection medium against double drop-out control; ADE2 and HIS3 reporters
[1] = molecular target: T1, Arabidopsis thaliana Rad4/XPC homologue (AtRAD4) (Arabidopsis thaliana)
[2] = molecular target: T2, Arabidopsis RAD23B (Arabidopsis thaliana)
[3] = molecular target: T3, RAD4N pGBKT7 (1-371/866 aa) (Arabidopsis thaliana)

binding [1] | binding [2] | binding [3] | Binder
 | binds |  | RAD4N pGADT7 (1-368/866 aa) (domain or fragment, UniProt Q8W489 1-368) MKSRSESKNCRLAQASRVAVNKVLDKSSARGSRGKKKQDDNCDSAKRDKGVNGKGKQALDARLIDNVLEDRGCGNVDDDEMNDSDWEDCPIPSLDSTVDDNNVDDTRELTIEFDDDVPDAKKQKNAYRATAEDKVRAELVHKVHLLCLLARGRIVDSACNDPLIQAALLSLLPSYLTKVSNLEKVTVKDIAPLLRWVRENFSVSCSPSSEKSFRTSLAFALESRKGTAEELAALAVALLRALKLTTRFVSILDVASLKPGADRNESSGQNRAKMKHGIFRTSTLMVPKQQAISSYPKKSSSHVKNKSPFEKPQLGNPLGSDQVQDNAVNSSCEAGMSIKSDGTRRKGDVEFERQIAMALSATADNQQS
binds |  | binds | HEMERA (HMR) (protein, UniProt F4IHY7 1-527) MASISTTTWLYRGQVCTDSGKSSNCIVQRRVKCGFPLKTLHAGITSRDRSLRHCIKCKKEDGDGDVSEGSKKSEEGFEYVTVERHPYHSYMDSTSGKLEPASGARASIPGEDYWPEGTSSRVRAARAPQPAGESSSFPSYGKNPGSRRKKNRKATEENVTVETNDEVSDSEDSSEEEENDSSDGFVTYKNEFEREEEETGFELDKKLGRPHPFIDPTKKKQIEKTLTSDESWWNWRKPEKEQWSRWQRRRPDVETVFLKAMAETGQVKLYGEEPTLTETSLYRARRHLFKEERLQAERERLAKEGPMAFYSEWVKAWKRDTSREAVQKHFEETGEDENTQLIEMFSHQTDREYRIMMGTDIRIKRDPLAMRMREDQIKQIWGGDPVYPTINYIQDPNAVMDFRGPDFHEPTPNMLSYLKENGKVISREMHEALLTKEKTEQLEVPDMDDAMAQAVDIGENDDDEDDADVEKDDEKVPRNWSVLKETPELRTAKPKPKKEGRMSLDEAVDDAENLTDFLMDFEEETDP
no binding |  |  | Arabidopsis thaliana Rad4/XPC homologue (AtRAD4) (protein, UniProt Q8W489 1-865) MKSRSESKNCRLAQASRVAVNKVLDKSSARGSRGKKKQDDNCDSAKRDKGVNGKGKQALDARLIDNVLEDRGCGNVDDDEMNDSDWEDCPIPSLDSTVDDNNVDDTRELTIEFDDDVPDAKKQKNAYRATAEDKVRAELVHKVHLLCLLARGRIVDSACNDPLIQAALLSLLPSYLTKVSNLEKVTVKDIAPLLRWVRENFSVSCSPSSEKSFRTSLAFALESRKGTAEELAALAVALLRALKLTTRFVSILDVASLKPGADRNESSGQNRAKMKHGIFRTSTLMVPKQQAISSYPKKSSSHVKNKSPFEKPQLGNPLGSDQVQDNAVNSSCEAGMSIKSDGTRRKGDVEFERQIAMALSATADNQQSSQVNNTKKVREITKISNSSSVSDQVISTAFGSKKVDSPLCWLEVYCNGENMDGKWVHVDAVNGMIDAEQNIEAAAAACKTVLRYVVAFAAGGAKDVTRRYCTKWHTISSKRVSSVWWDMVLAPLVHLESGATHDEDIALRNFNGLNPVSSRASSSSSSFGIRSALEDMELATRALTESLPTNQQAYKSHEIYAIEKWLHKNQILHPKGPVLGFCSGHPVYPRTCVQTLKTKERWLRDGLQLKANEVPSKILKRNSKFKKVKDFEDGDNNIKGGSSCMELYGKWQMEPLCLPPAVNGIVPKNERGQVDVWSEKCLPPGTVHLRFPRIFAVAKRFGIDYAPAMVGFEYRSGGATPIFEGIVVCTEFKDTILEAYAEEQEKKEEEERRRNEAQAASRWYQLLSSILTRERLKNRYANNSNDVEAKSLEVNSETVVKAKNVKAPEKQRVAKRGEKSRVRKSRNEDESHEHVFLDEEETFDEETSVKTKRCKCGFSVEVEQM

Second part, the binder before the results:

Binder | binding [1] | binding [2] | binding [3]
Arabidopsis DDB2 (protein, UniProt Q6NQ88 1-557) MSSTRSRRKRDPEIVIARDTDSELSSSEEEEEEEDNYPFSESEEEDEAVKNGGKIELEKNKAKGKAPITVKLIKKVCKVCKQPGHEAGFKGATYIDCPMKPCFLCKMPGHTTMSCPHRVVTDHGILPTSHRNTKNPIDFVFKRQLQPRIPPIKPKYVIPDQVHCAVIRYHSRRVTCLEFHPTKNNILLSGDKKGQIGVWDFGKVYEKNVYGNIHSVQVNNMRFSPTNDDMVYSASSDGTIGYTDLETGTSSTLLNLNPDGWQGANSWKMLYGMDINSEKGVVLAADNFGFLHMIDHRTNNSTGEPILIHKQGSKVCGLDCNPVQPELLLSCGNDHFARIWDMRKLQPKASLHDLAHKRVVNSAYFSPSSGTKILTTCQDNRIRIWDSIFGNLDLPSREIVHSNDFNRHLTPFKAEWDPKDTSESLIVIGRYISENYNGTALHPIDFIDASNGQLVAEVMDPNITTITPVNKLHPRDDVLASGSSRSLFIWRPQDNTEMVEEKKDKKIIICYGDSKKKGKKQKRGSDDEDDEDDIFSSKGKNIKVNKYQAKTTKKTKT | no binding |  | 
Arabidopsis RAD23B (protein, UniProt Q84L33 1-371) MKLTVKTLKGSHFEIRVLPSDTIMAVKKNIEDSQGKDNYPCGQQLLIHNGKVLKDETSLVENKVTEEGFLVVMLSKSKSGGSAGQASVQTSSVSQPVSATTSSTKPAAPSTTQSSPVPASPIPAQEQPAAQTDTYGQAASTLVSGSSLEQMVQQIMEMGGGSWDKETVTRALRAAYNNPERAVDYLYSGIPQTAEVAVPVPEAQIAGSGAAPVAPASGGPNSSPLDLFPQETVAAAGSGDLGTLEFLRNNDQFQQLRTMVHSNPQILQPMLQELGKQNPQLLRLIQENQAEFLQLVNEPYEGSDGEGDMFDQPEQEMPHAINVTPAEQEAIQRLEAMGFDRALVIEAFLACDRNEELAANYLLENSGDFED | binds |  | 

— article PMC5793161
